Some of the results follow. Shown are side measurements of this screen, not its main read-out; they come without a call. Most of these compounds were active or inconclusive in the main read-out, so they are no random draw. The note in brackets gives the kind of curve behind each potency; many fits are weak.
Test: qHTS Assay for Lipid Storage Modulators in Drosophila S3 Cells;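 for cell number change: cells counted by Cell Tracker Red CMTPX staining in the red channel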
Conditions: BODIPY lipid droplet fluorescence, 18-24 h; for cell number change: measured here: cell count max response, cells fed with added oleic acid
Summary of the method: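 Laser-scanning cytometry quantifies lipid droplet accumulation (500–530 nm total intensity; droplet/cell object ratio) in oleic acid-fed (400 uM added) Drosophila S3 cells treated with a concentration series. 20 uM Triacsin C defined 100% inhibition.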

[1] = measured here: cell number channel AC50, cells fed with added oleic acid
[2] = measured here: lipid fluorescence (Fed channel) AC50, cells fed with added oleic acid

Compound	cell number change [%]	AC50 [1]	AC50 [2]
O=C(NCc1cccc(Cl)c1)c1ccc2ccccc2n1	7.56	–	–
COc1ccccc1C(=O)Nc1cc2ccccc2oc1=O	4.12	–	–
Cc1ccccc1NC(=O)c1ccco1	5.87	–	–
COc1cccc(CN(C(=O)/C=C/c2ccc(Cl)cc2)C2CCS(=O)(=O)C2)c1 (stereo not drawn)	30.1	29.1 µM [rising, single point]	29.1 µM [rising, single point]
CC(NC(=O)Cn1c(=O)[nH]c2ccsc2c1=O)C12CC3CC(CC(C3)C1)C2 (stereo not drawn)	-46.9	20.6 µM [falling, partial curve]	18.4 µM [falling, partial curve]
CN(c1ccc(C(=O)NCCSC(C)(C)C)cc1)S(C)(=O)=O	-12.8	–	0.291 µM [falling, full curve, poor fit]
COc1ccc(NC(=O)c2ccccc2)c([N+](=O)[O-])c1	38.3	32.6 µM [rising, single point]	6.51 µM [falling, single point]
C=CCc1ccc(OCC(O)CN2CCN(Cc3ccccc3)CC2)c(OC)c1 (stereo not drawn)	–	–	1.64 µM [falling, single point]
O=C(NCc1n[nH]c(=S)n1-c1ccc(F)cc1)c1ccco1	-20.2	0.013 µM [falling, full curve, poor fit]	0.58 µM [falling, single point]
COc1ccc(C(c2nnnn2Cc2ccc(F)cc2)N2CCN(c3ccccc3)CC2)cc1 (stereo not drawn)	5.59	–	3.66 µM [rising, full curve, poor fit]
CC(=O)OCC(=O)Nc1ccccc1OC(F)F	5.39	–	–
CCOC(=O)C1CCN(C(=O)c2ccc(NS(=O)(=O)c3ccc(F)cc3C)cc2)CC1	-28.4	–	8.2 µM [falling, partial curve]
Cc1cnc(C(=O)N2CCCC(N3CCN(c4cccc(C(F)(F)F)c4)CC3)C2)cn1 (stereo not drawn)	12.5	0.00517 µM [rising, full curve, poor fit]	20.6 µM [rising, single point]
O=S1(=O)CCC(NS(=O)(=O)/C=C/c2ccccc2)C1 (stereo not drawn)	-73.4	29.1 µM [falling, single point]	–
CCc1ccc(NC(=S)N(CCOC)C2CCN(C(C)=O)CC2)cc1	–	–	1.46 µM [rising, partial curve, poor fit]
CCn1c(-c2ccc(F)cc2)cnc1SCC(=O)N1CCc2ccccc21	12.1	–	5.17 µM [rising, partial curve, poor fit]
CCCOc1ccc(-c2c(C(=O)N/N=C(\C)c3cccs3)nnn2-c2nonc2N)cc1	7.67	–	29.1 µM [falling, single point]
C[n+]1cccc2ccc3c(c21)OC(N)=C(C#N)C3c1ccccc1 (stereo not drawn)	–	–	0.116 µM [falling, full curve, poor fit]
Cc1cc[n+](CC(=O)c2ccc(NC(=O)c3ccccc3)cc2)c2ccccc12	8.45	–	–
Cc1ccccc1C(=O)NNC1CC(=O)N(c2ccc3c(c2)OCCO3)C1=O (stereo not drawn)	-2.91	–	–
COc1ccc(CCn2c(C)c(C(C)=O)c(C(C)=O)c2C)cc1OC	–	0.116 µM [falling, full curve, poor fit]	–

Some of the entries above, reformatted.
CCc1ccc(NC(=S)N(CCOC)C2CCN(C(C)=O)CC2)cc1
  AC50 [2]: 1.46 µM [rising, partial curve, poor fit]
CCn1c(-c2ccc(F)cc2)cnc1SCC(=O)N1CCc2ccccc21
  cell number change [%]: 12.1; AC50 [2]: 5.17 µM [rising, partial curve, poor fit]
CCCOc1ccc(-c2c(C(=O)N/N=C(\C)c3cccs3)nnn2-c2nonc2N)cc1
  cell number change [%]: 7.67; AC50 [2]: 29.1 µM [falling, single point]
C[n+]1cccc2ccc3c(c21)OC(N)=C(C#N)C3c1ccccc1 (stereo not drawn)
  AC50 [2]: 0.116 µM [falling, full curve, poor fit]

Additional structures

Compound	cell number change [%]	AC50 [1]	AC50 [2]
C=CCNc1sc(C(=O)C2CC2)c(N)c1C#N	14.9	–	6.51 µM [rising, single point]
CCOc1ccc(OCC(=O)OC(C)C(=O)Nc2ccc(Cl)cn2)cc1 (stereo not drawn)	50	0.366 µM [rising, full curve]	29.1 µM [rising, single point]
CC1=C(C(=O)O)N2C(=O)C(NC(=O)c3nn(C)cc3Cl)C2SC1 (stereo not drawn)	17	–	–
O=C(Nc1nnc(-c2ccco2)o1)c1cccc(Cl)c1	-2.28	–	–
CC12CCC(=O)N1C(C(=O)NNC(=O)c1ccccc1F)CS2 (stereo not drawn)	19.7	4.61 µM [falling, single point]	0.0731 µM [falling, full curve, poor fit]
COC(=O)c1ccc(CN2C(=O)NC(Cc3c[nH]c4ccccc34)C2=O)cc1 (stereo not drawn)	-2.63	–	5.62 µM [falling, single point]
CCOC(=O)C1CCCN(C(=O)CNC(=O)Cn2ccc3ccccc3c2=O)C1 (stereo not drawn)	-5.08	0.092 µM [falling, single point]	0.58 µM [falling, single point]
COc1ccc(NC(=O)Cn2nnc(-c3ccccc3NC(=O)c3ccco3)n2)cc1	-47.8	18.4 µM [falling, single point]	23.1 µM [falling, single point]
CC(C)NC(=O)c1ccc(-c2cc(C(F)(F)F)ccc2Cl)o1	6.42	–	–
Cc1ccc(CNC(=O)c2ccc(N3CCc4ccccc43)c([N+](=O)[O-])c2)cc1	-53.3	23.1 µM [falling, single point]	18.4 µM [falling, single point]
Cc1cc(C(=O)CSc2nnnn2C)c(C)n1CCc1ccc(F)cc1	-3.98	–	1.84 µM [rising, single point]
O=C(NCCc1ccccc1)C1CCC(CNS(=O)(=O)c2ccccc2)CC1 (stereo not drawn)	-9.85	–	–
COc1ccc(CNC(=O)C2CCCN2C(=O)NC2CCCCC2)cc1 (stereo not drawn)	-26.8	–	6.51 µM [falling, single point]
COc1ccc(-c2noc(CCC(=O)N(C)c3cccc(C)c3)n2)cc1	–	0.164 µM [rising, full curve, poor fit]	0.184 µM [rising, full curve, poor fit]
O=C(CSc1ccc(Cl)cc1)NNC(=O)c1cccnc1	31.3	20.6 µM [rising, single point]	–
C=CCC1c2cccc(C(=O)O)c2C(=O)N1c1cccc(OC)c1 (stereo not drawn)	1.85	–	0.00461 µM [falling, full curve, poor fit]
CCCCN=c1scc(-c2ccc3c(c2)NC(=O)CO3)n1N=C1CCCC1	4.83	1.03 µM [rising, full curve]	1.3 µM [rising, full curve]
CCCC(=O)c1cc2ccccc2oc1=O	18.3	–	18.4 µM [falling, partial curve]
COc1cccc(NC(=S)N2CCN(S(=O)(=O)c3ccccc3)CC2)c1	4.34	–	29.1 µM [rising, partial curve, poor fit]
CC(NS(=O)(=O)c1ccc(N)cc1)C1CC2CCC1C2 (stereo not drawn)	22.9	–	–
COC(=O)CCN(c1ccccc1)S(=O)(=O)c1cc(-c2cc(C)no2)ccc1C	-37.1	16.4 µM [falling, partial curve, poor fit]	3.26 µM [falling, partial curve]

Compound	cell number change [%]	AC50 [1]	AC50 [2]
CC(NS(=O)(=O)c1ccc(NC(=O)N2CCCCC2)cc1)c1ccccc1 (stereo not drawn)	-8.29	–	6.51 µM [rising, single point]
CN1C(=O)c2cccc3c(Cl)ccc(c23)C1=O	-6.18	–	1.84 µM [rising, partial curve, poor fit]
Cc1ccccc1NC(=O)CSc1nnc2ccc(-c3ccncc3)nn12	–	0.00517 µM [rising, full curve, poor fit]	0.0517 µM [rising, full curve, poor fit]
COc1ccccc1Nc1nc(-c2sc(NC(=O)c3cccc(Cl)c3)nc2C)cs1	-33.4	1.16 µM [falling, full curve, poor fit]	1.84 µM [falling, partial curve]
CCOC(=O)C1CCCN(CCC(=O)Nc2ccc(Br)cc2)C1 (stereo not drawn)	2.47	–	–
COc1ccc(S(=O)(=O)N2CCN(C)CC2)cc1Br	-8.36	–	–
CCn1c(=O)c(=O)[nH]c2c(=O)oc3ccc(S(=O)(=O)Nc4ccc(OC)cc4)cc3c21	–	–	5.17 µM [falling, full curve, poor fit]
COc1ccc(CNC(=O)C(C)Sc2ccc(S(=O)(=O)N3CCOCC3)cn2)cc1 (stereo not drawn)	10.4	–	–
Cc1sc2nc(CSC(C)C(=O)Nc3ccc(C#N)cc3)[nH]c(=O)c2c1C (stereo not drawn)	–	–	0.82 µM [falling, full curve, poor fit]
Cc1occc1C(=O)Nc1ccc(OCc2ccccc2)cc1	-18	–	29.1 µM [falling, single point]
COC(=O)c1cc(C(=O)OCC(=O)NC2CCS(=O)(=O)C2)cc([N+](=O)[O-])c1 (stereo not drawn)	13.6	0.00461 µM [falling, full curve, poor fit]	0.146 µM [falling, full curve]
Oc1cccc(-c2nc3ccc4ccccc4c3c3c2CCC3)c1	–	–	0.58 µM [falling, single point]
COc1cc(C(=O)NCC(=O)N/N=C/c2ccco2)cc(OC)c1OC	-12.5	–	2.31 µM [rising, partial curve]
Cc1cc(-c2onc(C)c2C(N)=O)no1	-9.24	–	1.84 µM [falling, full curve, poor fit]
O=C(CCCc1ccccc1)Nc1ccnn1C1CCN(Cc2ccccc2F)CC1	4.11	–	–
O=C(NC1CCCCC1)N1CCN(CCc2ccccc2)CC1	-27.5	–	16.4 µM [falling, partial curve]
O=C(CSc1ncccc1C(=O)O)c1ccccc1	-0.202	–	–
O=Cc1ccccc1-n1cccn1	6.62	–	–
CCOC(=O)c1c(NC(=O)CSc2nnnn2-c2ccc3c(c2)OCO3)sc(C)c1C	2.54	–	–
O=C(CNS(=O)(=O)c1ccc2ccccc2c1)Nc1ccc(F)c(F)c1F	-3.44	–	20.6 µM [rising, partial curve, poor fit]
